# The supplement of paper PMC3334620
# In all, about 33,000 sequences were measured (“E-score (-0.5 to 0.5)”: median about -0.0014, highest 2% from about 0.25 on). This is one part of the list.
# Target: T1, Cad1 (UniProt P24813)
# T1 sequence: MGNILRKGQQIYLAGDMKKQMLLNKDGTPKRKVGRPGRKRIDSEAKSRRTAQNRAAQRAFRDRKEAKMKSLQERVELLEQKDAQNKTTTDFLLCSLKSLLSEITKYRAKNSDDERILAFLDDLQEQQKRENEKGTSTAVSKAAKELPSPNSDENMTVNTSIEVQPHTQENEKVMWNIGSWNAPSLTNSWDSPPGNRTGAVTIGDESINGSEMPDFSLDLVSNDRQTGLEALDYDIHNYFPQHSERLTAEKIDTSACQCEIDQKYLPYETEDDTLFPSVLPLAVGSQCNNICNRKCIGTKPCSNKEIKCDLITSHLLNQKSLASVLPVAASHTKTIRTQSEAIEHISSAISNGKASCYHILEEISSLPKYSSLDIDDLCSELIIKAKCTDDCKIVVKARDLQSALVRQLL
# Experiment: PBM E-score (8-mer binding enrichment) (E-score (-0.5 to 0.5)); higher = stronger / more preferred TF binding
# Conditions: protein concentration: 100 nM; construct: GST-full length
# Summary of the method: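 Using PURExpress in vitro transcription/translation, GST-tagged yeast transcription factors were made in full-length or DNA-binding-domain form. These were applied at about 100-200 nM to double-stranded universal all-10-mer Agilent arrays, and bound protein was detected with fluorescent anti-GST. Scans were normalised with masliner before the Universal PBM Analysis Suite assigned E-scores to ungapped eight-base words pooled with their reverse complements.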
row,Sequence,PBM E-score
1,GTCCGGCA,0.0478
2,ATTAAAAA,0.221
3,AGGCAACC,0.056
4,GTCTGAAC,0.0267
5,AAGAATTC,0.0649
6,ACGTTTTC,0.00043
7,AAGGCGAA,-0.153
8,CGTACCTC,-0.187
9,ATTCGGCG,0.096
10,AGGCGTAT,0.102
11,AAATGAGC,0.0153
12,ATATCCAC,0.0501
13,ACATGGGG,-0.185
14,CCCGGCGG,-0.198
15,CGTCGTCC,-0.0843
16,GCTAACAC,0.0749
17,CAACGCAA,0.0609
18,GGCGAACA,-0.0067
19,AGCCTCCT,-0.12
20,ACCCTAGG,-0.0422
21,AATGGCTA,0.0612
22,CCCATAAG,-0.112
23,AGGCGAGC,-0.0654
24,CACCGACG,-0.0612
25,GTTAGCAA,0.0595

# Taken from above:
# Value of CCCGGCGG under PBM E-score: -0.198
# Value of AGGCGAGC under PBM E-score: -0.0654
# Value of GTCCGGCA under PBM E-score: 0.0478

# Remaining list, next part

row,Sequence,PBM E-score
1,GGGTATGA,0.113
2,CCAAAAGA,0.0811
3,CCAACCGG,-0.0891
4,AGTTCCTC,-0.0528
5,TGGACCAA,0.0182
6,ATAGACAC,-0.0255
7,CACCATCC,-0.223
8,AGATTGCT,-0.137
9,CATCACAC,0.14
10,AGATACAC,0.176
11,ACCGGGCT,-0.199
12,GATTCGAA,0.241
13,GCCGATCA,0.0125
14,ACTAATTA,0.377
15,CATGCAGG,-0.124
16,CTTCGCCC,-0.322
17,AGTGATGC,-0.0338
18,GTTGAATA,0.0812
19,AAATCAGC,0.239
20,GAACAATC,0.0607
21,ATGCACTC,-0.114
22,ACAGATAG,0.0169
23,CCCCGCCC,0.114
24,AACTTCTC,0.0154
25,CCGATTTC,0.0377

row,Sequence,PBM E-score
1,ATACCAAA,0.0574
2,AACAGTAT,0.0636
3,ACTTATGG,-0.186
4,CCATTGAG,0.00757
5,GCTGGGTA,-0.235
6,CTTGAGAA,-0.0624
7,GGAGTTTA,0.0863
8,AACGTTCC,-0.0424
9,ATTTCGTA,0.138
10,AAAGTTAA,0.18
11,GTTGCCTA,-0.0749
12,CTGCCGCC,-0.179
13,CAAGTTGA,0.0129
14,GACCATCA,0.06
15,ATTGTGTC,0.0338
16,CAATTCTC,0.0551
17,GATCTCGC,0.0917
18,AAGTAAGT,-0.0379
19,AACGGCAG,-0.164
20,ACTTATAC,0.154
21,GAGCGCTC,0.115
22,ATACCGCG,0.242
23,ATTTATTG,0.0113
24,ATAGAAAG,-0.159
25,GTTGGACA,0.029

row,Sequence,PBM E-score
1,AGTCGGAC,0.0345
2,TACTATGA,0.127
3,ACCCTCGT,-0.178
4,GGCTAGTA,-0.0115
5,AGTTAGGA,0.0543
6,ACTTCCCG,-0.00046
7,ACGTATAC,0.0645
8,CTTTCCAC,-0.0452
9,AATTGCGC,0.232
10,CATGGTAA,0.0672
11,AGTTAGTC,-0.0819
12,ACGCAAGT,-0.0803
13,AGGAATGA,-0.106
14,GTGCGACA,-0.125
15,CACTTCCG,-0.0726
16,CGTGGGCA,-0.0799
17,CGTATCGA,-0.0409
18,CGTGAGAA,-0.0161
19,AACATTGA,0.0877
20,CCACTCGA,-0.00049
21,CGCGGGAC,0.171
22,CATGGCAC,0.0314
23,CCGGTTAG,0.0658
24,CGGCGCAG,-0.0913
25,ACCCTCAT,-0.177

# Exported bar-delimited: part of the list above
row | Sequence | PBM E-score
4 | AGTTCCTC | -0.0528
5 | TGGACCAA | 0.0182
6 | ATAGACAC | -0.0255
7 | CACCATCC | -0.223

# Later entries:

row,Sequence,PBM E-score
1,AGTACCAC,-0.0358
2,GCTAGTGA,-0.00056
3,GCCGATAC,-0.157
4,CGAAATGC,-0.1
5,CACGCATC,-0.0605
6,AACGAGTG,0.0298
7,TAACAGGA,0.0656
8,ATACTCCG,0.155
9,TACTGTCA,0.106
10,AGGATTCA,-0.0821
11,ACCCCCCT,-0.463
12,CAACAATA,0.106
13,CGCCTAAC,0.0465
14,CTGGAGTC,-0.195
15,CTCCAAGA,-0.082
16,CTACCGAA,-0.051
17,CGTCTCTA,-0.211
18,ATATGCTA,0.0777
19,GCAAATAA,0.207
20,AACCGTCA,-0.101
21,CTGGCGAC,-0.0775
22,AACCTTCG,0.113
23,TTGTCAAA,0.105
24,GTACTCAC,0.158
25,ATTCCCAG,0.00162

row,Sequence,PBM E-score
1,CCTTCAAA,0.106
2,AAGTAAAG,-0.0536
3,TAGGTAGA,0.0382
4,CTCCGATA,-0.00157
5,AGTTGTAA,0.0382
6,ATTTTATA,0.221
7,CCGGTGAC,-0.154
8,ACTAGCAC,-0.0277
9,ATGGTGAG,-0.163
10,GACCAGTC,-0.12
11,AGGACAGA,-0.217
12,GCTTCTAC,-0.0294
13,AGCAATGG,-0.00886
14,CTTGAATA,0.118
15,ACGCTGCT,-0.113
16,GAACTAGA,0.0545
17,GGAGGAGA,-0.268
18,CAAATTGC,0.153
19,CCTCCCAA,-0.093
20,GTTTTGAA,0.115
21,GGCGGTAA,0.045
22,ATTAGGAG,0.00943
23,ACAGTGAT,0.0824
24,CCGATAAC,0.093
25,AATGCGGG,0.0953

row,Sequence,PBM E-score
1,CAGACATC,0.137
2,ATGGAAGC,-0.144
3,GGCGTACC,-0.0821
4,CCAAGTGA,-0.147
5,ATCGCACC,-0.119
6,AAGGTTCC,-0.0332
7,CGGAAAGC,0.12
8,CATAGATA,-0.00913
9,TTCGCGAA,0.343
10,TCGATACA,0.225
11,AAACTTAG,-0.0664
12,ATCTGCCC,-0.00876
13,GTATTAAA,0.0777
14,CAGGCTGC,-0.0968
15,CCTAACAA,0.132
16,CATCGCTC,-0.187
17,GGGTCCGA,-0.21
18,TAACGGTA,0.048
19,TACTTTGA,-0.0264
20,GGATCGCA,0.00149
21,CCAGGAGA,-0.0506
22,CATGGAGA,-0.0214
